Some results were stated once for a whole list of compounds, not compound by compound. At least one compound was matched to its structure with a doubt left.
Test system: rhesus monkeys
Experiment: conflict model of anxiolytic activity which also measures sedation
Assay type: in vivo
Conditions: intravenously; JY-XHE-053: only some slight sedation
Method: The data in FIGS. 21A-21F reflect the ability of the compounds or drugs to exert an anxioyic effect in rhesus monkeys (J. Rowlett, J. M. Cook et al., unpublished results) when given intravenously in propylene glycol/water solution. This is the conflict model of anxiolytic activity which also measures sedation. […] In FIG. 21B, SH-053-2′F (JY-XHE-053) is anxiolytic at a dose of greater than 0.13 mg/kg, but exerts only some slight sedation at doses greater than 1.2 mg/kg (responses decrease). In FIG. 21C it is clear the S-enantiomer of SH-053-2′F—S—CH3 is anxiolytic with no sedation up to 10-18 mg/kg, which is the highest dose tested.

Row | Structure (SMILES) | dose at which sedating (mean responses dropped)
1 | CN1C(=O)CN=C(c2ccccc2)c2cc(Cl)ccc21 [Diazepam, diazepam] | greater than 1.2 mg/kg
2 | C#Cc1ccc2c(c1)C(c1ccccc1F)=NCc1c(C(=O)OCC)ncn1-2 [JY-XHE-053, 8-Acetyleno-6-(2′-fluorophenyl)-4H-benzo[f]imidazo[1,5-a][1,4]diazepine-3-carboxylate] | greater than 1.2 mg/kg

— patent USRE47475E1, “Selective agents for pain suppression” (WiSys Technology Foundation, Inc., priority 2002, dated 2019)
